Here are results for 40 targets from the supplement of paper PMC12067093, “Discovery and optimisation of a covalent ligand for TRIM25 and its application to targeted protein ubiquitination” (Chemical Science, 2025).

Sequences of proteins named here, by UniProt entry; tags and fusion partners are left off. A change or cut given only in a name is not applied to a line headed by its entry.
UniProt P18887, whole entry, looked up: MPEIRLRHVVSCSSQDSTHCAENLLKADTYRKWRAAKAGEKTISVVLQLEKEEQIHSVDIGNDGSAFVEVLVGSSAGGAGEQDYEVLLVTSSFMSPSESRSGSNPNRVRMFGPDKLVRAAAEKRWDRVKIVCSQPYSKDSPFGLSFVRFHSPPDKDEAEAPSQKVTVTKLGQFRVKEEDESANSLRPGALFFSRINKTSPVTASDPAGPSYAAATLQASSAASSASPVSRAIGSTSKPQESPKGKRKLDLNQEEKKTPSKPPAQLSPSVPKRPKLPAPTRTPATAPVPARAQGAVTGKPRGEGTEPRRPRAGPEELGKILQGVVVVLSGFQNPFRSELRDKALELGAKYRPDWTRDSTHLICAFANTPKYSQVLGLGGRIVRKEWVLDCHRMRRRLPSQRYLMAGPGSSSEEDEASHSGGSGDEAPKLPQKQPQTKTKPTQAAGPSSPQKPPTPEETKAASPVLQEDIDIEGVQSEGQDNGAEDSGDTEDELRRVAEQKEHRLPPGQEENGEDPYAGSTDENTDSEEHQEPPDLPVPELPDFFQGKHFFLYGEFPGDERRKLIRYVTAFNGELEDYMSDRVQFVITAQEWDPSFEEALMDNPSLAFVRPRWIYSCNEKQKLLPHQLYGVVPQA
UniProt Q8TCF1: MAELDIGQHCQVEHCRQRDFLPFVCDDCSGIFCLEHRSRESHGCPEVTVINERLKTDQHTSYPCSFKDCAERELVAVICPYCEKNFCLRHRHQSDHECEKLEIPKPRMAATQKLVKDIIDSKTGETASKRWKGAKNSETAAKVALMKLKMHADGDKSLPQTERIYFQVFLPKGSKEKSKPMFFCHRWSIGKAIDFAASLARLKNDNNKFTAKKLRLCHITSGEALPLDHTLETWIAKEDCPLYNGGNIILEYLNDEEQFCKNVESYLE
UniProt Q9H0D6: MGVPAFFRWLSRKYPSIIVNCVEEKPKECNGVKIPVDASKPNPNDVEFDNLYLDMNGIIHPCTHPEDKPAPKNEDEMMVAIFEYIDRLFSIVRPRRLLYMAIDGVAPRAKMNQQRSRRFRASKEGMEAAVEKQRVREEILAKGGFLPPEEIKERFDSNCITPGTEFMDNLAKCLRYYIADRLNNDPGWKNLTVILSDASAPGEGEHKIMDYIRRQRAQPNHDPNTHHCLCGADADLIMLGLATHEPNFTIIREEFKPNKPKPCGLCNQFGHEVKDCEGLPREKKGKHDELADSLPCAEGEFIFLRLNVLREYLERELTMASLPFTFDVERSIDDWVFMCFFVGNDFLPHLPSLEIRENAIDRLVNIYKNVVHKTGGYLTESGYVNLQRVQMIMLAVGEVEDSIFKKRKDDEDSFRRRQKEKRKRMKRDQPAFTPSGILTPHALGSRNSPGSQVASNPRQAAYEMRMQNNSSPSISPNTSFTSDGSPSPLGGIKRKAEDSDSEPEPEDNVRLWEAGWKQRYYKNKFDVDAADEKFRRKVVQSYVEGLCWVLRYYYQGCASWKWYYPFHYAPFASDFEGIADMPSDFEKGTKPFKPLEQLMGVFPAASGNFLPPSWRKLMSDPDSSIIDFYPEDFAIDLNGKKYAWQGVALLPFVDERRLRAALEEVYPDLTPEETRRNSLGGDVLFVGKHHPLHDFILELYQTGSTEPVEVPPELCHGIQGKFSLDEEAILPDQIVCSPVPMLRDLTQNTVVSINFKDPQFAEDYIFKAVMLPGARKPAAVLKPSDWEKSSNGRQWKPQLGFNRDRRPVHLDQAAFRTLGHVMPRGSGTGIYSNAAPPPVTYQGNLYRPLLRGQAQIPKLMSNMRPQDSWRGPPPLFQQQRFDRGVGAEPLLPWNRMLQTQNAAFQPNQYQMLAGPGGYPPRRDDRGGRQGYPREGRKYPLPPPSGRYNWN
UniProt Q96H79: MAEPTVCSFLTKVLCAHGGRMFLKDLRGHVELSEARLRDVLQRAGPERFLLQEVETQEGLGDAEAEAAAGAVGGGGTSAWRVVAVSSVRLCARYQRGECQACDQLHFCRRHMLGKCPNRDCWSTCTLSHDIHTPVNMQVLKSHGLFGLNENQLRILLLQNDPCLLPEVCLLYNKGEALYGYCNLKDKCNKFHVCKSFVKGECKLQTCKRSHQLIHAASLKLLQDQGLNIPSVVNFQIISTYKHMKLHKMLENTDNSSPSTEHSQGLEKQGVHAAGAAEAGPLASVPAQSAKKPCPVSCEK
UniProt Q8NCP5: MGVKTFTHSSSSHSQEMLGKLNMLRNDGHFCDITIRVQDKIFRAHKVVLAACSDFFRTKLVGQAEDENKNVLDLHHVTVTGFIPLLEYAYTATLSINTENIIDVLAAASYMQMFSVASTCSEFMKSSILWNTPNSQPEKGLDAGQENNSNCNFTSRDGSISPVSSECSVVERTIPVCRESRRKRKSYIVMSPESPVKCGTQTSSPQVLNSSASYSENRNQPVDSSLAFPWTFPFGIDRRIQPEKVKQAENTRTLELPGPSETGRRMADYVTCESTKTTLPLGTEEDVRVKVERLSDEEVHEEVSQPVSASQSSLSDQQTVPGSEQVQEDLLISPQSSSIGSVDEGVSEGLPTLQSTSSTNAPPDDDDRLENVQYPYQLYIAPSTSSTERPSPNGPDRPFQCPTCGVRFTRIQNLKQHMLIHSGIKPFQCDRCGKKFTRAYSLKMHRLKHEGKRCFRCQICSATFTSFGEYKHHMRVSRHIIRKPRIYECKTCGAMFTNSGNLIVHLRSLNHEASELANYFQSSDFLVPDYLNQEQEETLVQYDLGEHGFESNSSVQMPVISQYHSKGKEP
UniProt P13010: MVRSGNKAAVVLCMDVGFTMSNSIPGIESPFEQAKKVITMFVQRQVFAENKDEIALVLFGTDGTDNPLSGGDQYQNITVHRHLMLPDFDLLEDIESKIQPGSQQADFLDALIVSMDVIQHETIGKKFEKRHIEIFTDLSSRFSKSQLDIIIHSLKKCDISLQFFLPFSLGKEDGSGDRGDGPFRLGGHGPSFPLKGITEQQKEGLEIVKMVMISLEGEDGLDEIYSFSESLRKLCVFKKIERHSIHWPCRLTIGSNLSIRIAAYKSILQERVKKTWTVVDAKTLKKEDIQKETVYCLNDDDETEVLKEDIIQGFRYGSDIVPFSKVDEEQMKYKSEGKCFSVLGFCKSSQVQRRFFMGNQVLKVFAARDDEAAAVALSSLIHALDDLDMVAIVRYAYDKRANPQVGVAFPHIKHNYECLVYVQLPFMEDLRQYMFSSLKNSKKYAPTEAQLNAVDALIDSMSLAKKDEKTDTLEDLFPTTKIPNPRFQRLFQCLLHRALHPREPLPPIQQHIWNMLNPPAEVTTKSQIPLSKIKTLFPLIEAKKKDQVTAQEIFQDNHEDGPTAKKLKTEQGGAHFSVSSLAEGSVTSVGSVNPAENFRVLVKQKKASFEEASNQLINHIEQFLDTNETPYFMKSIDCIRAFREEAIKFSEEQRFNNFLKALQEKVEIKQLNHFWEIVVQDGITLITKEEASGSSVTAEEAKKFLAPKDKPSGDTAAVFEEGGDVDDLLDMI
UniProt Q8IWR0: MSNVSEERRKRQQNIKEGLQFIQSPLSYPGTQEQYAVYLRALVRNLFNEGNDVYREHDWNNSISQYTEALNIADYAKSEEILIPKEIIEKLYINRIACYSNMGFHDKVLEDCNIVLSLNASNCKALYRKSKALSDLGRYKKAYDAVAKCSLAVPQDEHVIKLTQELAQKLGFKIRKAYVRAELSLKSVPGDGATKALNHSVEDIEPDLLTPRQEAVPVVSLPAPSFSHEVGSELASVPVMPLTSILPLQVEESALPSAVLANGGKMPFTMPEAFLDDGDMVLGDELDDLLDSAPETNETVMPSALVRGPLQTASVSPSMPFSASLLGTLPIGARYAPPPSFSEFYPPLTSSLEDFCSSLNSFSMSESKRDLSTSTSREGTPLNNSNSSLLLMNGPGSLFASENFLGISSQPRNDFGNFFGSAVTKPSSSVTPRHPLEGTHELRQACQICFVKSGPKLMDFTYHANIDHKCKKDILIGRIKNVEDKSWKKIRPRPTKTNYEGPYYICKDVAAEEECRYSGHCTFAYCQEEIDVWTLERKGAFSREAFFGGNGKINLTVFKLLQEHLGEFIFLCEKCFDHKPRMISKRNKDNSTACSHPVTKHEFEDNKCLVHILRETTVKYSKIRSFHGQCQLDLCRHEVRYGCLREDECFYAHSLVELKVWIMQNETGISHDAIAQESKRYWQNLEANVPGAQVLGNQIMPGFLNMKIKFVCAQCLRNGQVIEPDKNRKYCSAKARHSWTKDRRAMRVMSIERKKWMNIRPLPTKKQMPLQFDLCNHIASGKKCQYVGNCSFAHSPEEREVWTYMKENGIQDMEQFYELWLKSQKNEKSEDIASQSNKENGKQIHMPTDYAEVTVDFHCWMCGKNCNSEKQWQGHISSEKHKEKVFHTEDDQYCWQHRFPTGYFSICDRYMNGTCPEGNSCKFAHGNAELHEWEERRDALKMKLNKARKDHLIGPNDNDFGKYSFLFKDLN
UniProt Q6PJT7: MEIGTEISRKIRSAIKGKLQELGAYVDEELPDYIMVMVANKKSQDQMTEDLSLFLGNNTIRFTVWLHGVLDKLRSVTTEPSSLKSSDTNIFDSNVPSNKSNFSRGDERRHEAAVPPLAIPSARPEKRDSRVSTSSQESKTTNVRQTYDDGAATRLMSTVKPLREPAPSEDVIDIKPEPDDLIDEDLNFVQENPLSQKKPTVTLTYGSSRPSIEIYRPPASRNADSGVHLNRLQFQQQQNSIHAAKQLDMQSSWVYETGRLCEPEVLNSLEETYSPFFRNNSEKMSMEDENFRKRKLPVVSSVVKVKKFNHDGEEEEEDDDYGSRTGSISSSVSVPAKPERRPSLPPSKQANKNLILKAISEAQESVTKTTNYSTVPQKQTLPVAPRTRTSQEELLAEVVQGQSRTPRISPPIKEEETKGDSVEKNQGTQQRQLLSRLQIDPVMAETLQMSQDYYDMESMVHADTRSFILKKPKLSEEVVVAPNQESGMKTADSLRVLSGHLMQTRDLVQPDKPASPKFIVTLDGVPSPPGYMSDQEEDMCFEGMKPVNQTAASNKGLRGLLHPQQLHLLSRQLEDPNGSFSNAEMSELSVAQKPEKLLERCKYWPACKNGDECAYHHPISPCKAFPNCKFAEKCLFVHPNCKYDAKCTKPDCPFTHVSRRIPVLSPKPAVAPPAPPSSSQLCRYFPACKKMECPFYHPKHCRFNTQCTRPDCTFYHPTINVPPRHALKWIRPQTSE
UniProt Q7Z2W4: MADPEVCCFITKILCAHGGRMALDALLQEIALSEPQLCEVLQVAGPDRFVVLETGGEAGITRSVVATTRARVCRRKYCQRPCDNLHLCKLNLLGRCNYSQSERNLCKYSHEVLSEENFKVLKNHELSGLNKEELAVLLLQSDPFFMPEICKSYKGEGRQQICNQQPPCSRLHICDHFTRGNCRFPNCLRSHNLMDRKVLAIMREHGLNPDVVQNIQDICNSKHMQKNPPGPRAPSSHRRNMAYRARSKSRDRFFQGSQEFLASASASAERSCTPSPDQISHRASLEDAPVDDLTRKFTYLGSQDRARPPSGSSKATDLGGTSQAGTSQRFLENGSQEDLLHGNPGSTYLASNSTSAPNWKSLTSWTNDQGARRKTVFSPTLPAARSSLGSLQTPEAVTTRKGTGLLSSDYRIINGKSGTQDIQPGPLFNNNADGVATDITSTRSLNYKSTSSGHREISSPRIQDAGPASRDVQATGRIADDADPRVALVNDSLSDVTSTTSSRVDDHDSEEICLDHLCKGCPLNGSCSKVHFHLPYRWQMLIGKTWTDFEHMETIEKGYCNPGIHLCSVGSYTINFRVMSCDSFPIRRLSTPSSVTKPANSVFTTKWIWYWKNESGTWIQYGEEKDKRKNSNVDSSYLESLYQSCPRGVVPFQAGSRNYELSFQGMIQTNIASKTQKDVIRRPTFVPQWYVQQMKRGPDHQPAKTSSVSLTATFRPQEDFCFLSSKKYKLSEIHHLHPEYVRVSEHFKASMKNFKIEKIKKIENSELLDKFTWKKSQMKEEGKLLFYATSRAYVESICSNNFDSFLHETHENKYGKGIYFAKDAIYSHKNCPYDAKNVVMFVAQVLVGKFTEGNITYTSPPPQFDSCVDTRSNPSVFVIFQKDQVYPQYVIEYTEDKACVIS
UniProt Q9NUD5: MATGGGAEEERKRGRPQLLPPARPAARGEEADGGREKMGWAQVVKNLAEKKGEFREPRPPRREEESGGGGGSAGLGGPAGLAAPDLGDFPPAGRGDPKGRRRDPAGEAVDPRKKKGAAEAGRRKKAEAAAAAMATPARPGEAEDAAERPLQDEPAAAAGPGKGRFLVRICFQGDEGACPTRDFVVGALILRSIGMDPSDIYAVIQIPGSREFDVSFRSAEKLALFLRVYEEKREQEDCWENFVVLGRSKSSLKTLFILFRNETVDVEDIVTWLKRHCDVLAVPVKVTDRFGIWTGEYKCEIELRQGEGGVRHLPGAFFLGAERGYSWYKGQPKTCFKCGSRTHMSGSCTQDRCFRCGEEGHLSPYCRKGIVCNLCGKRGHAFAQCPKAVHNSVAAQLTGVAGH

This is one part of the list.
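Also: competitive profiling in live THP-1 cells: cysteine peptides tagged with an iodoacetamide desthiobiotin (IA-DTB) probe, intensity after compound treatment relative to DMSO-treated cells.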

Compound in this assay: Cc1cc(ccc1-c1ccccc1)C(=O)N1CCCN(CC1)C(=O)CCl [compound 10]
The assay is described as follows: probe-labelled cysteine peptide fold change vs DMSO (competition) (log2 fold change); higher = less target engagement (more negative = stronger competition). As to conditions: 50 µM; THP-1; incubation time: 4 h.
Consider “XRCC1_P18887_362_DSTHLICAFANTPK (UniProt P18887)”, for which the “probe-labelled cysteine peptide fold change” value was -0.146.
Take “ZFAND1_Q8TCF1_10_AELDIGQHCQVEHCR (UniProt Q8TCF1)”: the “probe-labelled cysteine peptide fold change” value is -0.0496.
The figure for “XRN2_Q9H0D6_276_DCEGLPR (UniProt Q9H0D6)” is 0.174; for “ZC3H12D_A2A288_64_GSCGVPDSAQR (UniProt A2A288)” it is -0.636.
For “ZC3H7B_Q9UGR2_700_FVCGQCWR (UniProt Q9UGR2)” the value was 0.072.
The figure for “ZC3HAV1L_Q96H79_99_GECQACDQLHFCR (UniProt Q96H79)” is 0.152.
As for “ZBTB44_Q8NCP5_31_NDGHFCDITIR (UniProt Q8NCP5)”, the “probe-labelled cysteine peptide fold change” value was 0.393.
As for “XRCC5_P13010_296_ETVYCLNDDDETEVLKEDIIQGFR (UniProt P13010)”, the “probe-labelled cysteine peptide fold change” value was -0.189.
For “YIPF4_Q9BSR8_94_CVLMPMPSLGFNR (UniProt Q9BSR8)” the value was -0.000503; for “ZC3HAV1L_Q96H79_99+102_GECQACDQLHFCR (UniProt Q96H79)”, -0.106.
The figure for “YDJC_A8MPS7_18_LVVTADDFGYCPR (UniProt A8MPS7)” is -0.245; for “XRN1_Q8IZH2_657_ALYFCGFPTLK (UniProt Q8IZH2)” it is 0.169; for “ZC3H7A_Q8IWR0_149_CSLAVPQDEHVIK (UniProt Q8IWR0)” it is -0.0376.
For “YY1AP1_Q9H869_734_QCQEGLSENSAYR (UniProt Q9H869)” the value was 0.349; for “ZC3H14_Q6PJT7_628_AFPNCK (UniProt Q6PJT7)”, -0.221.
Take “ZBED4_O75132_156_DLSTSCLMR (UniProt O75132)”: the “probe-labelled cysteine peptide fold change” value was -0.341.
For “ZFC3H1_O60293_1141_TMEVKPCPFRPYHSPLLVFK (UniProt O60293)” the value was -0.16; for “XRCC5_P13010_493_LFQCLLHR (UniProt P13010)”, 0.0388; for “ZC3HAV1_Q7Z2W4_174_LHICDHFTR (UniProt Q7Z2W4)”, -0.382.
The figure for “ZC3H7A_Q8IWR0_921_YMNGTCPEGNSCK (UniProt Q8IWR0)” is -0.194; for “ZC3H12A_Q5D1E8_374_RPSPSSQSSSLLTESEQCSLDGK (UniProt Q5D1E8)” it is -0.484.
The figure for “ZC3H14_Q6PJT7_607_YWPACK (UniProt Q6PJT7)” is -0.0327; for “XRN2_Q9H0D6_21_KYPSIIVNCVEEK (UniProt Q9H0D6)” it is 0.603.
In the case of “YJU2_Q9BW85_83_CLAEITFK (UniProt Q9BW85)”, the “probe-labelled cysteine peptide fold change” value was -0.0845.
The figure for “YARS_P54577_501_ISEECIAQWK (UniProt P54577)” is -0.109; for “ZC3H11A_O75152_80_LNCAFHHNR (UniProt O75152)” it is -0.191.
For the target “XRCC1_P18887_389_EWVLDCHR (UniProt P18887)”, the “probe-labelled cysteine peptide fold change” value came out at 0.107.
In the case of “ZC3HAV1L_Q96H79_15_VLCAHGGR (UniProt Q96H79)”, the “probe-labelled cysteine peptide fold change” value came to 0.426.
In the case of “ZC3HAV1_Q7Z2W4_567_GYCNPGIHLCSVGSYTINFR (UniProt Q7Z2W4)”, the “probe-labelled cysteine peptide fold change” value was found to be 0.426.
With “ZC3HAV1_Q7Z2W4_96_CNYSQSER (UniProt Q7Z2W4)”, the “probe-labelled cysteine peptide fold change” value was -0.122.
For “YTHDF2_Q9Y5A9_433_YNIWCSTEHGNK (UniProt Q9Y5A9)” the value was 0.118; for XPO1_O14980_99_NQCEGIK (UniProt O14980), 0.16; for “XPO6_Q96QU8_22_ALESLMTEFFHDCTTNER (UniProt Q96QU8)”, -0.00142.
The figure for “XRCC5_P13010_418_HNYECLVYVQLPFMEDLR (UniProt P13010)” is 0.3; for “ZC3H7A_Q8IWR0_775_QMPLQFDLCNHIASGKK (UniProt Q8IWR0)” it is -0.69.
For “ZCCHC3_Q9NUD5_356_CGEEGHLSPYCR (UniProt Q9NUD5)” the value was 0.342.
On to “XPOT_O43592_900_QTFDLADAQTVLALSECAVTLK (UniProt O43592)”, for which the “probe-labelled cysteine peptide fold change” value came to 0.193.
For “XRN2_Q9H0D6_266_PCGLCNQFGHEVK (UniProt Q9H0D6)” the value was 0.168; for “YES1_P07947_42_YRPENTPEPVSTSVSHYGAEPTTVSPCPSSSAK (UniProt P07947)”, -0.501.
XPO5_Q9HAV4_221_AQANCR (UniProt Q9HAV4): the “probe-labelled cysteine peptide fold change” value turned out to be 0.419.
